The target of one test is T1, GST-MCUR1_(138–338) (UniProt Q96AQ8).
T1 sequence: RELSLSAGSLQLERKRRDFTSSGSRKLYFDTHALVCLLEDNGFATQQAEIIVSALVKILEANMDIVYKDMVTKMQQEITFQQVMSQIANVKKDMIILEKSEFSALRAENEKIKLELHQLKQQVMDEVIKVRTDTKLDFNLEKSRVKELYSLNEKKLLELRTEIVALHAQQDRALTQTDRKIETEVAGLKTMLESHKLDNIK
Put plainly: pull-down; in vitro; GST-tagged bait immobilized on GST affinity resin, His-tagged prey flowed through the resin; Western blot after SDS-PAGE. (Immunoblotting shows a protein as a band on a membrane.)

The chains behind the UniProt entries cited, without tags or fusion partners. Where a name states a change or a piece, a line headed by the entry shows the natural chain unless it says otherwise. Residues count along the entry.
UniProt Q8NE86, residues 75-165: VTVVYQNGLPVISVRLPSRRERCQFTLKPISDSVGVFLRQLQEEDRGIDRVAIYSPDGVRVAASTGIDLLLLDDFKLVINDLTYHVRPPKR

Test [1] addresses GST-MCU NTD (MCU residues 75-165) (human) (UniProt Q8NE86). The test is described as above.

These are yes or no findings as the source states them, for the method shown. In cells and extracts the contact can be indirect. Some binding calls cover weakened binding; strength is not graded here. Sequences can lack the tags named with a protein.

As for “His-MCU NTD (MCU residues 75-165) (from UniProt Q8NE86-1 75-165) (domain or fragment)”, the binding result with GST-MCUR1_(138–338) is “binds”.

B1: His-MBP-MCUR1_(138–338) (domain or fragment, UniProt Q96AQ8 138-338)
chain: T1 sequence
For the molecule B1, in test [1], the binding result was “binds”.

The record behind these values is paper PMC4662854, “Structure and function of the N‐terminal domain of the human mitochondrial calcium uniporter” (EMBO Reports, 2015).
